At least one compound was matched to its structure with a doubt left.
Test system: Ruminococcaceae family
Assay: Gut microbiota of mCRPC patients stratified by ADT regimen (whole genome metagenome)
Assay type: in vivo, human
Conditions: Abiraterone vs Enzalutamide
Description: FIG. 16—Different ADT regimens alter gut microbiota composition. (A) Pie chart representing the number of CRPC patients receiving Enzalutamide, Abiraterone or other treatment (Apalutamide, Docetaxel, Cabazitaxel or no active treatment) at the moment of the rectal swab. […] (C) Patients treated with enzalutamide (n=14) and apalutamide (n=1) were stratified according to the circulating testosterone level (≤10 ng/dL or >10 ng/dL). Pie charts show, within each group, the fraction of patients having Ruminococcus DSM_10044 in their gut microbiota.
Collection of patient feces. Patients with hormone-sensitive (HSPC) and metastatic CRPC consented to the analysis of their rectal swabs. […]
Whole genome metagenome analysis of patient feces. […] DNA was analyzed by Qubit (Invitrogen, Thermo Fisher Scientific, Waltham, USA) and integrity was checked by agarose gel electrophoresis.
Illumina TruSeq DNA libraries were prepared using the TruSeq nano DNA Library preparation kit (Illumina, San Diego, USA) according to the manufacturer's instructions. […] The final libraries were quantified using a Quant-iT™ PicoGreen™ ds DNA Assay Kit (Thermo Fisher Scientific, Waltham, USA) and equimolarly pooled prior to sequencing. […] Quality of the reads in fastq format was checked with the software FastQC (version 0.11.8). […]

SMILES: C[C@]12CC[C@H](O)CC1=CC[C@@H]1[C@@H]2CC[C@]2(C)C(c3cccnc3)=CC[C@@H]12 [abiraterone]
- expansion of Ruminococcaceae family in gut microbiota: not

Source: patent publication US20250268958A1, “COMMENSAL BACTERIA PROMOTE ENDOCRINE-RESISTANCE IN PROSTATE CANCER VIA ANDROGEN BIOSYNTHESIS” (FONDAZIONE PER L'ISTITUTO ONCOLOGICO DI RICERCA (IOR), priority 2021, published 2025)
